Results as given in PubChem BioAssay AID493014 (National Center for Advancing Translational Sciences (NCATS), 2011).
Hit rate of the full screen: of about 340,000 compounds, about 170 (0.05%) were called active. Inconclusive results, whose numbers are uncertain, are shown with a selection of clear calls. The call rests on the fitted dose curve; in most records, active means well fitted inhibition curve with a large enough effect in the signal ratio, with a control signal flat (not every such curve was filed as active); inconclusive means small, poorly fitted or top-dose-only effect, or effect the other way, or a change in a side signal; inactive means flat fitted curve, though single readings scatter; the % refers to the signal ratio. A potency beside an inconclusive call is a rough fit, not a confirmed value.

Assay: qHTS Assay to Find Inhibitors of Chronic Active B-Cell Receptor Signaling;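 on activity change, negative = inhibition: plate controls were basal doxycycline-induced cells for no effect and cells given 10 µM MG132 for full effect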
Details: ABC-DLBCL IkBa-CBG/CBR reporter, luminescence ratio (green luciferase fused to IkBa over red control in TMD8 lymphoma cells), 4 h; activity change, negative = inhibition: at 46.1 µM (top of the series)
Outline: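 Concentration-response series (up to 46 uM) were applied to TMD8 dual-reporter cells for 4 h at 37C with doxycycline. Green/red ratio, after filter-overlap correction, defined %Activity; red signal alone was normalised to basal cells and zero luminescence.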
Potency means the concentration at half of the fitted maximal effect.

Compound	activity change, negative = inhibition	Potency
COc1cccc(-c2nc(CS(=O)(=O)CC(=O)NCCc3ccc(OC)cc3OC)c(C)o2)c1	inconclusive: -9.1%	–
Cc1ccc(NC(=O)c2noc3c2CCC3)cc1C	–	inconclusive: 25.1 µM [falling, single point]
Cc1cc(C(=O)NCc2ccccc2)no1	–	inconclusive: 35.5 µM [falling, partial curve, poor fit]
Cn1c(=O)c2sc3c(c2n(CC(=O)Nc2ccccc2)c1=O)COC(C)(C)C3	–	inconclusive: 35.5 µM [falling, partial curve, poor fit]
Cc1c(C)c(C)c2[nH]c(-c3ccc4c(c3)OCO4)nc2c1C	inconclusive: 0.0465%	–
CS(=O)(=O)N1CCN(c2ccc([N+](=O)[O-])c(NCc3ccccc3)c2)CC1	inactive	–
C=CCC[C@H](Cc1ccc(F)cc1)C(=O)OC[C@@H](Cc1c[nH]c2ccccc12)NC(=O)[C@@H](CC=C)CC(=O)N(CCO)Cc1ccccc1	inconclusive: 5.39%	–
COCC(=O)Nc1cc(C)cn(Cc2ccc(F)cc2)c1=O	inactive	–
COc1ccc(OC)c(Nc2nc(C)nc3c2oc2ccccc23)c1	inconclusive: 0.293%	–
CCOC(=O)C1(CCc2ccccc2)CCN(C2Cc3ccccc3C2)CC1	inconclusive: 11.4%	–
COc1cc(C)ccc1OCc1cc(C(=O)NC(C)Cn2cncn2)no1 (configuration not stated)	inactive	–
CCCc1ccc(OCc2ccc(C(=O)OC)o2)c(OC)c1	–	inconclusive: 7.31 µM [falling, partial curve]
CC(C)C[C@H](NC(=O)c1nc[nH]c1C(=O)N1CCc2ccccc2C1)C(=O)OC(C)(C)C	inactive	–
CN(C)CCNc1ncnc2c1cnn2-c1ccc(Cl)cc1	inconclusive: 14.7%	–
Nn1c(SCC(=O)Nc2ccc(F)cc2)nnc1-c1cccnc1	inconclusive: -8.85%	–
COc1ccc(-n2cnc3c(sc4nc(N5CCOCC5)c5c(c43)CCCC5)c2=O)cc1	inactive	–
CCC1=NN(C(=O)Cc2ccccc2)C(O)(c2ccncc2)C1 (configuration not stated)	–	inconclusive: 2 µM [falling, full curve, poor fit]
O=C(NC1(O)C(=O)c2ccccc2C1=O)c1ccc(C(F)(F)F)cc1	inconclusive: 2.2%	–
CC(C)(C)C1CCc2c(sc(NC(=O)c3ccco3)c2C(N)=O)C1 (configuration not stated)	–	inconclusive: 2.59 µM [rising, full curve, poor fit]
O=C(O)c1cccc2c1-c1ccccc1/C2=N\Nc1ccccc1	inconclusive: -15.6%	–
O=C(/C=C/c1ccccc1)C1=C(O)C(=O)N(CCO)C1c1ccc2c(c1)OCO2 (configuration not stated)	inconclusive: 10.2%	–

Compound	activity change, negative = inhibition	Potency
Cn1cccc1CNC(=S)Nc1ccccc1Cl	inactive	–
CCCCC1CCC(C(=O)OC(C)C(=O)Nc2ccc(NC(C)=O)cc2)CC1 (configuration not stated)	inactive	–
CCN1CCN(C(=O)C2CC(c3ccc(F)cc3)=NO2)CC1 (configuration not stated)	inconclusive: 2.14%	–
Cc1cccc(N2CCN(C(=O)Cn3ccc4ccccc4c3=O)CC2)c1C	inconclusive: 4.94%	–
Cc1ccc2nc(-c3ccc(NC(=O)COC(=O)c4ccco4)cc3)sc2c1	inconclusive: 9.32%	–
COC(=O)c1sc(S(=O)(=O)N2CCC(C(=O)O)CC2)c(C(=O)OC)c1C	inconclusive: 3.98%	–
CCCc1nc2ccccc2c(=O)n1/N=C/c1ccc(O)cc1O	inconclusive: -19%	–
O=C(NCc1cccnc1)C1c2ccccc2C(=O)N1Cc1ccccc1 (configuration not stated)	inconclusive: 13.2%	–
COc1cccc(OC)c1CNC(=O)C1CCC(=O)N(CC2CCCCC2)C1 (configuration not stated)	inactive	–
CCc1ccc(OCC(=O)O/N=C(\N)c2cccnc2)cc1	inconclusive: 7.2%	–
Cc1nn(C(=O)c2ccccc2)c2c1C(=O)CC(C)(C)C2	inconclusive: -12%	–
O=C(COc1ccc(Cl)cc1Br)N1CCN(c2ncccn2)CC1	inconclusive: 11.6%	–
Cc1ccc(NC(=S)N(CCCN2CCCC(C)C2)Cc2ccco2)cc1C (configuration not stated)	inconclusive: -1.74%	–
Cc1ccc(/C=N/NC(=O)c2ccco2)cc1	–	inconclusive: 35.5 µM [rising, single point]
CC(=O)COc1ccc2cc(-c3ccccc3)c(=O)oc2c1	inactive	–
Nc1nc(NCCCN2CCOCC2)nc(Nc2ccccc2F)c1[N+](=O)[O-]	inactive	–
Cc1nc(Nc2ccc(Cl)c(Cl)c2)sc1C(=O)Nc1ccccc1	inconclusive: -13%	–
COCCNS(=O)(=O)c1ccc2c3c(cccc13)C(=O)N2C	–	inconclusive: 11.2 µM [falling, partial curve, poor fit]
COCCNC(=O)/C(C#N)=C/c1cccc(OCc2ccccc2)c1	inconclusive: -28.5%	–
Cc1cccc(OCCn2nnc3ccccc32)c1C	–	inconclusive: 11.2 µM [falling, single point]
COC(=O)c1c(NC(NC(=O)c2ccccc2)(C(F)(F)F)C(F)(F)F)sc2c1CCN(C)C2	inactive	–

Some of the entries so far, as a markdown table:

| Compound | activity change, negative = inhibition | Potency |
| --- | --- | --- |
| Cc1ccc(NC(=O)c2noc3c2CCC3)cc1C | – | inconclusive: 25.1 µM [falling, single point] |
| CCCc1ccc(OCc2ccc(C(=O)OC)o2)c(OC)c1 | – | inconclusive: 7.31 µM [falling, partial curve] |
| Cc1ccc(NC(=S)N(CCCN2CCCC(C)C2)Cc2ccco2)cc1C (configuration not stated) | inconclusive: -1.74% | – |
| Cc1cccc(OCCn2nnc3ccccc32)c1C | – | inconclusive: 11.2 µM [falling, single point] |

Carrying on:

Compound	activity change, negative = inhibition	Potency
Cc1nc2ccccc2n1CCc1nc2c3ccccc3nc(SCC(=O)Nc3cccc(C(F)(F)F)c3)n2n1	inactive	–
Cc1cc(=O)n2nc(N3CCCC3C(=O)Nc3ccccc3C)sc2n1 (configuration not stated)	inactive	–
COc1ccc(N(CC(=O)Nc2ccc3c(c2)OCCO3)S(C)(=O)=O)c(OC)c1	inconclusive: -7.7%	–
C=CCOc1ccc(C2C(C(=O)c3ccco3)=C(O)C(=O)N2Cc2cccnc2)cc1 (configuration not stated)	inactive	–
O=C(Nc1cccc2c1CCCC2)c1cc([N+](=O)[O-])ccc1Cl	inactive	–
O=C(NC(=S)Nc1ccccc1N1CCCC1)c1cccs1	inactive	–
O=C(Cc1nc2ccccc2[nH]1)c1cccc([N+](=O)[O-])c1	–	inconclusive: 31.6 µM [falling, partial curve]
COc1ccccc1C(=O)NCCn1cc(SCC(=O)Nc2nnc(C)s2)c2ccccc21	inconclusive: -8.72%	–
COc1ccc(NC(=O)CSc2nnnn2C2CCCCC2)c(OC)c1	inconclusive: 3.41%	–
CCCC(=O)Nc1cc(S(=O)(=O)N(CC)CC)ccc1Cl	inconclusive: 3.57%	–
COCCNC(=O)c1ccc2c(=O)n(CCOC)c(=O)[nH]c2c1	inconclusive: 12.7%	–
O=C(/C=C/c1ccc(Cl)cc1)Nc1nccs1	–	inconclusive: 7.08 µM [falling, partial curve]
COC(=O)c1ccccc1NC(=O)CCCN1C(=O)C(c2ccccc2)Oc2cccnc21 (configuration not stated)	inconclusive: -7.89%	–
CCOC(=O)c1ccc(NC(=S)N2CCSC2c2ccc(Br)cc2)cc1 (configuration not stated)	inconclusive: -74.4%	–
CCOc1ccc(NC(=O)NNC(=O)c2ccc(CC)s2)cc1	inactive	–
Cc1cc(C)n2nc(SCC(=O)c3ccccc3)nc2n1	inconclusive: 323%	–
Cc1ccc(C(=O)OCC(=O)N2C(C)CCCC2C)cc1S(=O)(=O)N1CCOCC1 (configuration not stated)	inconclusive: 13.1%	–
Cc1ccc(C2(C)NC(=O)N(CC(=O)Nc3ccccc3N3CCCC3)C2=O)cc1 (configuration not stated)	inconclusive: 6.58%	–
Cc1ccc(NC(=O)c2ccccc2)cc1OC(=O)c1ccccc1	–	inconclusive: 35.5 µM [falling, single point]
c1ccc(-c2csc3ncnc(NCc4ccccn4)c23)cc1	–	inconclusive: 35.5 µM [falling, single point]
Cc1ccc(S(=O)(=O)N=Nc2c(O)[nH]c3ccccc23)cc1	inactive	–

Compound	activity change, negative = inhibition	Potency
C/C(=N\NC(=O)c1ccc(C)cc1C)c1ccc2c(c1)OCO2	inconclusive: -12.9%	–
CCCn1nnc(NC(=O)c2ccc(Cl)cc2Cl)n1	inconclusive: 27.5%	–
NNC(=O)c1cc2ccccc2[nH]1	–	inconclusive: 22.4 µM [falling, single point]
Cc1ccc(NC(=O)CCCN2C(=O)c3cccc4cccc(c34)C2=O)cc1	–	inconclusive: 16.4 µM [rising, partial curve, poor fit]
COc1cccc(C(=O)NCC2CCCN2S(=O)(=O)c2ccccc2)c1 (configuration not stated)	inactive	–
C[n+]1c2n(c3ccccc31)N=C(c1ccc(-c3ccccc3)cc1)CS2	–	inconclusive: 3.55 µM [falling, full curve, poor fit]
CC(C)Oc1ccc(C(=O)Nc2cccc(S(=O)(=O)N3CCCC3)c2)cc1	inactive	–
O=C(NCCc1ccco1)C(=O)NCC1OCCCN1S(=O)(=O)c1cc(F)ccc1F (configuration not stated)	inconclusive: -196%	–
CCOC(=O)C1=C(C)NC2=C(C(=O)CCC2)C1c1coc2ccccc2c1=O (configuration not stated)	inconclusive: 5.56%	–
CCC(C)(C)n1nnnc1C(c1cc2ccc(C)cc2[nH]c1=O)N(Cc1cccnc1)Cc1ccco1 (configuration not stated)	inactive	–
Cc1ccc(-n2c(C)nn(Cc3ccc([N+](=O)[O-])cc3)c2=O)cc1	inconclusive: 10.5%	–
O=C(O)CCCCCNc1nc(=S)[nH]c2ccccc12	–	inconclusive: 4.61 µM [falling, full curve]
CCCCc1ccc(-c2ccc(Br)cc2O)nc1	–	inconclusive: 0.92 µM [falling, full curve]
COc1ccc(-c2cnnn2-c2ccc(N)cc2)cc1OC	inconclusive: -21.6%	–
CCOC(=O)N1CCN(S(=O)(=O)c2ccc(C(=O)Nc3ccc(F)cc3F)cc2)CC1	–	inconclusive: 2.51 µM [falling, full curve]
O=C(Nc1nccs1)c1cccc(N2C(=O)c3cccc4c([N+](=O)[O-])ccc(c34)C2=O)c1	inconclusive: 22.4%	–
CC(C)c1ccc(NC2CCCN(C(=O)c3ccsc3)C2)cc1 (configuration not stated)	inconclusive: -6.53%	–
CCOC(=O)C1CCN(C(=O)CCc2c(C)nc3cc(-c4ccccc4)nn3c2C)CC1	–	inconclusive: 10 µM [falling, partial curve]
O=C(CCc1ccccc1)NC(=S)Nc1ccc(S(=O)(=O)N2CCOCC2)cc1	inconclusive: -0.84%	–
